Results taken from patent US20170268001A1, “RNAS WITH TUMOR RADIO/CHEMO-SENSITIZING AND IMMUNOMODULATORY PROPERTIES AND METHODS OF THEIR PREPARATION AND APPLICATION” (THE UNIVERSITY OF CHICAGO, priority 2016, published 2017).
A negative result means that nothing was seen under these conditions. Tags and fusion partners may be left off the protein sequences shown.

Target: T1, RIG-I (DDX58), full-length (Homo sapiens) (UniProt O95786)
T1 sequence (looked up): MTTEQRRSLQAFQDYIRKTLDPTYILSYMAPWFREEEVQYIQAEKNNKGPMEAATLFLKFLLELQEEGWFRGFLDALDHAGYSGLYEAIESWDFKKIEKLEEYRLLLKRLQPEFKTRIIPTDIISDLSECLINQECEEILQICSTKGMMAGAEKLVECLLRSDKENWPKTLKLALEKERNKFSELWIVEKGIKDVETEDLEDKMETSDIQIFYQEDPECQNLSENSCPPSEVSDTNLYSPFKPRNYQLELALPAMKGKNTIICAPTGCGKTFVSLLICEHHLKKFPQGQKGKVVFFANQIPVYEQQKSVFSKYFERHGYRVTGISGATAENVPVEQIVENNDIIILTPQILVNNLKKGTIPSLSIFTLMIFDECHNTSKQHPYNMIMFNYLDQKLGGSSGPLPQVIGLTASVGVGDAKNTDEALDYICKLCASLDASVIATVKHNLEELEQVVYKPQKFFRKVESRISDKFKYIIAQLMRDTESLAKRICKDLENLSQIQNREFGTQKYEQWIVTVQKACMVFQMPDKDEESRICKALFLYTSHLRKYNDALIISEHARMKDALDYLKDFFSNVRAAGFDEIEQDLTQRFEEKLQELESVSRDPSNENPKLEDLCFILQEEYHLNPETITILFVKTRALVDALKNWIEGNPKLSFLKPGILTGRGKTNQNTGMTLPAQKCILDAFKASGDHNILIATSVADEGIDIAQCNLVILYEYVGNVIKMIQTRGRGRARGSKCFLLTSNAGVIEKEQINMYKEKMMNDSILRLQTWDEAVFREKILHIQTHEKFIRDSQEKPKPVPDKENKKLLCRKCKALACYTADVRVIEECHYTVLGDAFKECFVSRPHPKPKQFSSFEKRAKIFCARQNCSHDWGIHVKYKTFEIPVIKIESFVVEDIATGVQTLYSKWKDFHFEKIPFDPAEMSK
Test: activity in cells
Details: IFN-beta luciferase reporter in HEK293, protein in cells

## GCAUGCGACCUCUGUUUGA / UCAAACAGAGGUCGCAUGC [unphosphorylated dsRNA 19-mer negative control]
Negative control
  functional effect: not active

## GCAUGCGACCUCUGUUUGA / UCAAACAGAGGUCGCAUGC [5'-triphosphate dsRNA 19-mer positive control]
5'-triphosphate on top strand, positive control
  functional effect: active
